According to patent US20160046678A1 (ZYNGENIA, published 2016):
Results are given in words; binding and its absence hold for the method and conditions named. Some binding calls cover weakened binding; strength is not graded here.

Sequences of proteins named here, by UniProt entry; tags and fusion partners are left off. Residues count along the entry.
UniProt P05231, residues 30-212: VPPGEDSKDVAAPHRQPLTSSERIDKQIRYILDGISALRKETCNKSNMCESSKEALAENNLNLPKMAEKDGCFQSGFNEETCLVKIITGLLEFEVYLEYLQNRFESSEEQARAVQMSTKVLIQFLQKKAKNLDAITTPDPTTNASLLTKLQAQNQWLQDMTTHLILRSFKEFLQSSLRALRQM

molecular target: IL6 (UniProt P05231); test: MRD identification, Example 48

binding	Binder
binds	ILB631 (peptide) peptide: LQAWMWQVNQGQAGQGSATGGSSFNEDCMWDPLLMDCAYSPQGSATGGSSFNEDCMWDPLLMDCAYSP
binds	IQWPSMMEIHGQAGQGSFNEDCMWDPLLMDCAYSP [ILB609]
binds	SMTKYKALYHGQAGQGSFNEDCMWDPLLMDCAYSP [ILB617]
binds	ILB645 (peptide) peptide: QYQSRQTFQIGQAGQGSFNEDCMWDPLLMDCAYSPQGSFNEDCMWDPLLMDCAYSP
binds	YQDSWITGMQGQAGQGSATGGSSFNEDCMWDPLLMDCAYSP [ILB593]
binds	ILB620 (peptide) peptide: SCFGDLQICWGQAGQGSATGGSGSTASSGSGSSFNEDCMWDPLLMDCAYSP
binds	QCWIYPYDGLCNGQAGQGSATGGSSFNEDCMWDPLLMDCAYSP [ILB612]
binds	YCTDRVDICMGQAGQGSATGGSGSTASSFNEDCMWDPLLMDCAYSP [ILB590]
binds	YTTYNWKPWQGQAGQGSATGGSSFNEDCMWDPLLMDCAYSP [ILB599]
binds	FNFERWEQKPQGSFNEDCMWDPLLMDCAYSP [ILB615]
binds	AYYWKEWMKMGQAGQGSATGGSSFNEDCMWDPLLMDCAYSPG [ILB643]
binds	HWMTYQFWIQGQAGQGSATGGSSFNEDCMWDPLLMDCAYSP [ILB604]
binds	YYPQHIDHIMGQAGQGSATGGSSFNEDCMWDPLLMDCAYSP [ILB606]
binds	ANSWCHTLYWDLMYCVWQE [ILB623]
binds	HHQQSMYWLEGQAGQGSATGGSSFNEDCMWDPLLMDCAYSP [ILB597]
binds	ACDTQHHGCMGQAGQGSATGGSGSTASSFNEDCMWDPLLMDCAYSP [ILB600]
binds	YYQGFPWFQIGQAGQGSATGGSSFNEDCMWDPLLMDCAYSP [ILB647]
binds	DQLWRQNWMQGQAGQGSFNEDCMWDPLLMDCAYSP [ILB639]
binds	IYLSWDMPALGQAGQGSATGGSGSTASSFNEDCMWDPLLMDCAYSP [ILB633]
binds	FFYQWSYGWSGQAGQGSFNEDCMWDPLLMDCAYSP [ILB648]

binding	Binder
binds	IDNKYEGMVLGQAGQGSFNEDCMWDPLLMDCAYSP [ILB603]
binds	EEEWSWYDRRGQAGQGSFNEDCMWDPLLMDCAYSP [ILB642]
binds	GCNYFPTQWECYGQAGQGSFNEDCMWDPLLMDCAYSP [ILB630]
binds	AIAHLDVFPPQGSFNEDCMWDPLLMDCAYSP [ILB644]
binds	QYYNVYWQNQGQAGQGSATGGSSFNEDCMWDPLLMDCAYSP [ILB640]
binds	EAWRELRWWNGQAGQGSFNEDCMWDPLLMDCAYSP [ILB589]
binds	HPMEIKTMMKGQAGQGSFNEDCMWDPLLMDCAYSP [ILB627]
binds	HTEFQRLEWPQGSATGGSSFNEDCMWDPLLMDCAYSP [ILB608]
binds	ILB625 (peptide) peptide: MVYRWVMQADGQAGQGSATGGSGSTASSGSGSSFNEDCMWDPLLMDCAYSP
binds	YVLQQVEMQEGQAGQGSFNEDCMWDPLLMDCAYSP [ILB616]
binds	QTYSNKPMGPQGSFNEDCMWDPLLMDCAYSP [ILB641]
binds	MPLDDQPFLEGQAGQGSFNEDCMWDPLLMDCAYSP [ILB607]
binds	LQAWMWQVNQGQAGQGSATGGSSFNEDCMWDPLLMDCAYSP [ILB629]
binds	QDNIAYQGWWGQAGQGSFNEDCMWDPLLMDCAYSP [ILB618]
binds	DGSGFYPNKWFHGGQAGQGSATGGSSFNEDCMWDPLLMDCAYSP [ILB624]
binds	PESWCHTLYWNLQHCLSQE [ILB602]
binds	WQVSSVQLPYGQAGQGSATGGSSFNEDCMWDPLLMDCAYSP [ILB637]
binds	ILB646 (peptide) peptide: YWAWQQEFQWGQAGQGSATGGSSFNEDCMWDPLLMDCAYSPGSYWAWQQEFQWGQAGQGSATGGSSFNEDCMWDPLLMDCAYSP
binds	QFPYESPPSIGQAGQGSFNEDCMWDPLLMDCAYSP [ILB632]
binds	EVVGVGWFLNGQAGQGSFNEDCMWDPLLMDCAYSP [ILB601]

binding	Binder
binds	AEHTFALQYVGQAGQGSFNEDCMWDPLLMDCAYSP [ILB598]
binds	PLYTVWKWSGGQAGQGSATGGSGSTASSFNEDCMWDPLLMDCAYSP [ILB614]
binds	QTGWGPKYMWGQAGQGSFNEDCMWDPLLMDCAYSP [ILB610]
binds	QQTQTYWGTWGQAGQGSFNEDCMWDPLLMDCAYSP [ILB638]
binds	LIVPAPLTWWGQAGQGSFNEDCMWDPLLMDCAYSP [ILB591]
binds	VCQDEVYMWCEGQAGQGSATGGSSFNEDCMWDPLLMDCAYSP [ILB595]
binds	QSHIHLEKWLGQAGQGSFNEDCMWDPLLMDCAYSP [ILB611]
binds	HCKDMHWAIQFGQAGQGSFNEDCMWDPLLMDCAYSP [ILB621]
binds	MDHIWQHGQLGQAGQGSATGGSSFNEDCMWDPLLMDCAYSP [ILB619]
binds	YEEHCRLFPADWICSLLQ [ILB594]
binds	PAKDPFVMRHGQAGQGSATGGSSFNEDCMWDPLLMDCAYSP [ILB636]
binds	ADSWCHTLYWNLRHCEIQE [ILB596]
binds	WLFVAEQSQYGQAGQGSATGGSSFNEDCMWDPLLMDCAYSP [ILB622]
binds	WVPDMWMHEWGQAGQGSFNEDCMWDPLLMDCAYSP [ILB592]
binds	TCELMQAWTHLGQAGQGSATGGSSFNEDCMWDPLLMDCAYSP [ILB605]
binds	TCTHLVKTVLIGQAGQGSFNEDCMWDPLLMDCAYSP [ILB613]
binds	PDSWCHTLYWHLQHCLSQE [ILB635]
binds	QYTEMVALVYGQAGQGSATGGSGSTASSFNEDCMWDPLLMDCAYSP [ILB634]
